{"source": "PubChem BioAssay AID1159584 (Peter MacCallum Cancer Centre, 2016)", "purpose": "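Knock-downs that harm CDH1-null cells more than parental MCF10A cells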 (primary screen)", "system": "human MCF10A breast epithelial cells, parental and CDH1-null", "knock-down reagent": "siRNA against human genes", "measurement": "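Cell viability by CellTiter-Glo ATP luminescence, each line scaled to the mean of mock wells across plates, then CDH1-null over parental ratio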", "scale": "CDH1-null / parental viability ratio: higher = CDH1-null cells survive relatively better than parental; CDH1-null viability vs mock: higher = more viable CDH1-null cells", "units": "CDH1-null viability vs mock in fraction of mock", "note": "Shown is one part, drawn at random, of about 18,000 reagents. Further read-outs or replicates are left out here. The record does not give: the amount of reagent, the time to read-out."}
The opening 3 records, to show the layout:
{"gene symbol": "DUSP9 (dual specificity phosphatase 9)", "CDH1-null / parental viability ratio": 1.27, "CDH1-null viability vs mock": 0.99}
{"gene symbol": "F12 (coagulation factor XII)", "CDH1-null / parental viability ratio": 1.12, "CDH1-null viability vs mock": 0.66}
{"gene symbol": "MELTF (melanotransferrin)", "CDH1-null / parental viability ratio": 1.1, "CDH1-null viability vs mock": 0.9}

Main list, repeating the preview:
{"gene symbol": "DUSP9 (dual specificity phosphatase 9)", "CDH1-null / parental viability ratio": 1.27, "CDH1-null viability vs mock": 0.99}
{"gene symbol": "F12 (coagulation factor XII)", "CDH1-null / parental viability ratio": 1.12, "CDH1-null viability vs mock": 0.66}
{"gene symbol": "MELTF (melanotransferrin)", "CDH1-null / parental viability ratio": 1.1, "CDH1-null viability vs mock": 0.9}
{"gene symbol": "SOX4 (SRY-box transcription factor 4)", "CDH1-null / parental viability ratio": 0.79, "CDH1-null viability vs mock": 0.65}
{"gene symbol": "ERAP2 (endoplasmic reticulum aminopeptidase 2)", "CDH1-null / parental viability ratio": 0.92, "CDH1-null viability vs mock": 0.9}
{"gene symbol": "RAB23 (RAB23, member RAS oncogene family)", "CDH1-null / parental viability ratio": 0.88, "CDH1-null viability vs mock": 0.92}
{"gene symbol": "USB1 (U6 snRNA biogenesis phosphodiesterase 1)", "CDH1-null / parental viability ratio": 1.06, "CDH1-null viability vs mock": 0.56}
{"gene symbol": "SRPX (sushi repeat containing protein X-linked)", "CDH1-null / parental viability ratio": 0.93, "CDH1-null viability vs mock": 0.7}
{"gene symbol": "TRAK1 (trafficking kinesin protein 1)", "CDH1-null / parental viability ratio": 1.2, "CDH1-null viability vs mock": 0.6}
{"gene symbol": "ESR2 (estrogen receptor 2)", "CDH1-null / parental viability ratio": 1.23, "CDH1-null viability vs mock": 1.16}
{"gene symbol": "ACHE (acetylcholinesterase (Yt blood group))", "CDH1-null / parental viability ratio": 0.74, "CDH1-null viability vs mock": 0.75}
{"gene symbol": "CELA2A (chymotrypsin like elastase 2A)", "CDH1-null / parental viability ratio": 1.09, "CDH1-null viability vs mock": 0.76}
{"gene symbol": "NUDT17 (nudix hydrolase 17)", "CDH1-null / parental viability ratio": 1.57, "CDH1-null viability vs mock": 1.26}
{"gene symbol": "BORCS8-MEF2B (BORCS8-MEF2B readthrough)", "CDH1-null / parental viability ratio": 1.06, "CDH1-null viability vs mock": 1.15}
{"gene symbol": "PARVB (parvin beta)", "CDH1-null / parental viability ratio": 0.92, "CDH1-null viability vs mock": 0.71}
{"gene symbol": "ISCA1P1 (iron-sulfur cluster assembly 1 pseudogene 1)", "CDH1-null / parental viability ratio": 0.82, "CDH1-null viability vs mock": 0.75}
{"gene symbol": "CKAP4 (cytoskeleton associated protein 4)", "CDH1-null / parental viability ratio": 1, "CDH1-null viability vs mock": 0.46}
{"gene symbol": "OR5I1 (olfactory receptor family 5 subfamily I member 1)", "CDH1-null / parental viability ratio": 1.15, "CDH1-null viability vs mock": 0.78}
{"gene symbol": "ISX (intestine specific homeobox)", "CDH1-null / parental viability ratio": 1.1, "CDH1-null viability vs mock": 0.74}
{"gene symbol": "SIX5 (SIX homeobox 5)", "CDH1-null / parental viability ratio": 0.75, "CDH1-null viability vs mock": 0.51}
{"gene symbol": "EPG5 (ectopic P-granules 5 autophagy tethering factor)", "CDH1-null / parental viability ratio": 1.29, "CDH1-null viability vs mock": 0.67}
{"gene symbol": "PLCE1 (phospholipase C epsilon 1)", "CDH1-null / parental viability ratio": 1.03, "CDH1-null viability vs mock": 0.8}
{"gene symbol": "ADCY1 (adenylate cyclase 1)", "CDH1-null / parental viability ratio": 0.93, "CDH1-null viability vs mock": 0.82}
{"gene symbol": "ARMCX3 (armadillo repeat containing X-linked 3)", "CDH1-null / parental viability ratio": 0.94, "CDH1-null viability vs mock": 0.9}
{"gene symbol": "UBE2B (ubiquitin conjugating enzyme E2 B)", "CDH1-null / parental viability ratio": 1.11, "CDH1-null viability vs mock": 1.02}
{"gene symbol": "RBM25 (RNA binding motif protein 25)", "CDH1-null / parental viability ratio": 0.59, "CDH1-null viability vs mock": 0.55}
{"gene symbol": "HAVCR2 (hepatitis A virus cellular receptor 2)", "CDH1-null / parental viability ratio": 0.94, "CDH1-null viability vs mock": 0.44}
{"gene symbol": "TSLIG3C (tRNA splicing ligase complex subunit 3C)", "CDH1-null / parental viability ratio": 1, "CDH1-null viability vs mock": 0.78}
{"gene symbol": "OR13C3 (olfactory receptor family 13 subfamily C member 3)", "CDH1-null / parental viability ratio": 0.89, "CDH1-null viability vs mock": 0.78}
{"gene symbol": "ATOH1 (atonal bHLH transcription factor 1)", "CDH1-null / parental viability ratio": 0.7, "CDH1-null viability vs mock": 0.66}
{"gene symbol": "CNTN6 (contactin 6)", "CDH1-null / parental viability ratio": 1.05, "CDH1-null viability vs mock": 0.92}
{"gene symbol": "PLA2G7 (phospholipase A2 group VII)", "CDH1-null / parental viability ratio": 1.02, "CDH1-null viability vs mock": 0.84}
{"gene symbol": "EVC (EvC ciliary complex subunit 1)", "CDH1-null / parental viability ratio": 0.58, "CDH1-null viability vs mock": 0.6}
{"gene symbol": "STBD1 (starch binding domain 1)", "CDH1-null / parental viability ratio": 1.26, "CDH1-null viability vs mock": 0.83}
{"gene symbol": "FAM153A (family with sequence similarity 153 member A)", "CDH1-null / parental viability ratio": 1.15, "CDH1-null viability vs mock": 0.83}
